This test has as its target EGFP-RIPK2 (receptor interacting serine/threonine kinase 2) (human) (UniProt O43353). The experiment in a line: affinity purification with mass spectrometry.

Amino acid sequences for entries named in this document (tags omitted).
UniProt O43353: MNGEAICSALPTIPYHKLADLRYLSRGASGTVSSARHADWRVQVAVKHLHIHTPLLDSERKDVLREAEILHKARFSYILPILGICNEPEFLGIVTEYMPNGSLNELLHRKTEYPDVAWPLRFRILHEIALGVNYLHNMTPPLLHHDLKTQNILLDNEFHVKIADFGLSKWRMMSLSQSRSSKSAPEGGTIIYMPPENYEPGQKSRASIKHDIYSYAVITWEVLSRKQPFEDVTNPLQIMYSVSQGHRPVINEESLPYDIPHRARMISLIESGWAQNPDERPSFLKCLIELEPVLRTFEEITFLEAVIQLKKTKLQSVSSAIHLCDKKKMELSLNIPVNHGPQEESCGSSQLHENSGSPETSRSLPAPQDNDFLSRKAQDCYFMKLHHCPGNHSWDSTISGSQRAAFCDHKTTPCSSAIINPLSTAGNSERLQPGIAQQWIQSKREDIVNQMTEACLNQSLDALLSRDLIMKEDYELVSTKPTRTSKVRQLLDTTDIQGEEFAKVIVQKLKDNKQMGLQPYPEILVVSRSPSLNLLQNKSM
UniProt P62258: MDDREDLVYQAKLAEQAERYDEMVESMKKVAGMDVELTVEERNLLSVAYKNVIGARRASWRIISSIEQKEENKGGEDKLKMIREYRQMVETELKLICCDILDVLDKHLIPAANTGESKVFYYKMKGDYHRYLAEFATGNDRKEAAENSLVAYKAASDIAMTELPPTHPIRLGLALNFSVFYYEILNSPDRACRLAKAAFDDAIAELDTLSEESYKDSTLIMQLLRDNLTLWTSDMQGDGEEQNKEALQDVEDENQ
UniProt P63104: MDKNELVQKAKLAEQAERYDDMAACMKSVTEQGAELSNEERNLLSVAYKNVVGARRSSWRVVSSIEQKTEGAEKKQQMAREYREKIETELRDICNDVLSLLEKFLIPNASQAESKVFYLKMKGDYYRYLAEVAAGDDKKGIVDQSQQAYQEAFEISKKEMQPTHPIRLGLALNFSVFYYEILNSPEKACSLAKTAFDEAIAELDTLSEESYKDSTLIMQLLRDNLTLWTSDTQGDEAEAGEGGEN
UniProt P31946: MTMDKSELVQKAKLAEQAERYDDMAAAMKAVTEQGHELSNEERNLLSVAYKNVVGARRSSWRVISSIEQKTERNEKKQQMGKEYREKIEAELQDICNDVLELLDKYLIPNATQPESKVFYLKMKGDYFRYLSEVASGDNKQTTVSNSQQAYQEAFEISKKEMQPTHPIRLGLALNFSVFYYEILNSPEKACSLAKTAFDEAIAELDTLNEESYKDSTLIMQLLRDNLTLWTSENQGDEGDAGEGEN

No constants are given. Whether binding was seen depends on the method and setting. Binding seen in cells or lysates may run through a third protein. These calls come from enrichment with a bait or labelling near it, and not all partners need be listed.

The text below walks through data of article doi:10.1101/545400.

In the case of “14-3-3ε (endogenous) (from UniProt P62258 1-255)”, the binding entry was “binds”. The entry for “14-3-3ζ (endogenous) (from UniProt P63104 1-245)” is “binds”. Turning to “14-3-3β (endogenous) (from UniProt P31946 1-246)”, the binding entry is listed as “binds”.

B1: Erlin-2 (protein, UniProt O94905 1-339)
chain: MAQLGAVVAVASSFFCASLFSAVHKIEEGHIGVYYRGGALLTSTSGPGFHLMLPFITSYKSVQTTLQTDEVKNVPCGTSGGVMIYFDRIEVVNFLVPNAVYDIVKNYTADYDKALIFNKIHHELNQFCSVHTLQEVYIELFDQIDENLKLALQQDLTSMAPGLVIQAVRVTKPNIPEAIRRNYELMESEKTKLLIAAQKQKVVEKEAETERKKALIEAEKVAQVAEITYGQKVMEKETEKKISEIEDAAFLAREKAKADAECYTAMKIAEANKLKLTPEYLQLMKYKAIASNSKIYFGKDIPNMFMDSAGSVSKQFEGLADKLSFGLEDEPLETATKEN
As to B1, the binding result is on record as “binds”.

B2: Erlin-1 (protein, UniProt O75477 1-348)
chain: MNMTQARVLVAAVVGLVAVLLYASIHKIEEGHLAVYYRGGALLTSPSGPGYHIMLPFITTFRSVQTTLQTDEVKNVPCGTSGGVMIYIDRIEVVNMLAPYAVFDIVRNYTADYDKTLIFNKIHHELNQFCSAHTLQEVYIELFDQIDENLKQALQKDLNLMAPGLTIQAVRVTKPKIPEAIRRNFELMEAEKTKLLIAAQKQKVVEKEAETERKKAVIEAEKIAQVAKIRFQQKVMEKETEKRISEIEDAAFLAREKAKADAEYYAAHKYATSNKHKLTPEYLELKKYQAIASNSKIYFGSNIPNMFVDSSCALKYSDIRTGRESSLPSKEALEPSGENVIQNKESTG
Take B2: the binding entry is listed as “binds”.

B3: 14-3-3γ (endogenous) (protein, UniProt P61981 1-247)
chain: MVDREQLVQKARLAEQAERYDDMAAAMKNVTELNEPLSNEERNLLSVAYKNVVGARRSSWRVISSIEQKTSADGNEKKIEMVRAYREKIEKELEAVCQDVLSLLDNYLIKNCSETQYESKVFYLKMKGDYYRYLAEVATGEKRATVVESSEKAYSEAHEISKEHMQPTHPIRLGLALNYSVFYYEIQNAPEQACHLAKTAFDDAIAELDTLNEDSYKDSTLIMQLLRDNLTLWTSDQQDDDGGEGNN
With B3, the binding entry is reported as “binds”.
